In PMC4893818, “Folliculin directs the formation of a Rab34–RILP complex to control the nutrient‐dependent dynamic distribution of lysosomes” (EMBO Reports, 2016) one finds binding data, which are given here for two molecules.

Assay [1] has as its target T1, GST-RILP (full ORF) (human, UniProt Q96NA2 1-401).
T1 construct: also called GST-RILP resin; source: E. coli BL21(DE3), purified (glutathione beads, eluted with glutathione, dialysed); not shown: GST, N-terminal, kept
T1 sequence (looked up): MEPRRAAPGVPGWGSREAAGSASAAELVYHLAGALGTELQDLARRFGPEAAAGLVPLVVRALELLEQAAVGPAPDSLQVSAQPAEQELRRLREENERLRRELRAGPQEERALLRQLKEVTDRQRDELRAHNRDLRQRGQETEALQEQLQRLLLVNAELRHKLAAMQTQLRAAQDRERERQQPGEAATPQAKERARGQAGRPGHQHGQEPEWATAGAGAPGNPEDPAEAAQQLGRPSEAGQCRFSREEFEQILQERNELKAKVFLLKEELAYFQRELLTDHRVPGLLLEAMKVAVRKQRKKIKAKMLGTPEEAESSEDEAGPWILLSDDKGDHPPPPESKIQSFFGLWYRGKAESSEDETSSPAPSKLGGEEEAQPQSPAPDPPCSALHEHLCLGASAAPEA
As to the kind of experiment: pull-down; purified proteins: 0.2 nmol GST-RILP on glutathione beads; Rab34 proteins at 200 nM or FLCN-DENN at 1 uM, each alone; HEPES pH 7.5, 250 mM NaCl, 2 mM MgCl2, 1 mM GDP or GTPγS where indicated; 14 h at 4 °C; anti-His Western blot; both purified.

The target of assay [2] is T1, GST-RILP (full ORF). As to the kind of experiment: pull-down; purified proteins: 0.2 nmol GST-RILP on glutathione beads; Rab34 proteins at 200 nM together with FLCN-DENN (1 uM; titrated 0 to 10 uM; 0.5 uM for wild-type Rab34); HEPES pH 7.5, 250 mM NaCl, 2 mM MgCl2, 1 mM GDP or GTPγS; 14 h at 4 °C; anti-His Western blot; both purified. (In general: A western blot detects proteins with antibodies after separation by electrophoresis.)

Assay [3] concerns the target T1, GST-RILP (full ORF). In words: condition: only Rab34 loaded with GDP (1 mM GDP); 200 nM; pull-down; purified proteins: 0.2 nmol GST-RILP on glutathione beads; Rab34 proteins at 200 nM or FLCN-DENN at 1 uM, each alone; HEPES pH 7.5, 250 mM NaCl, 2 mM MgCl2, 1 mM GDP or GTPγS where indicated; 14 h at 4 °C; anti-His Western blot; both purified.
For assay [4], the target named is T1, GST-RILP (full ORF). In words: condition: only Rab34 loaded with GDP (1 mM GDP); 200 nM; pull-down; purified proteins: 0.2 nmol GST-RILP on glutathione beads; Rab34 proteins at 200 nM together with FLCN-DENN (1 uM; titrated 0 to 10 uM; 0.5 uM for wild-type Rab34); HEPES pH 7.5, 250 mM NaCl, 2 mM MgCl2, 1 mM GDP or GTPγS; 14 h at 4 °C; anti-His Western blot; both purified.

Residue numbers refer to the chain shown, from its start. Numbers in names are those of the source. These are yes or no findings as the source states them, for the method shown. Sequences can lack the tags named with a protein.

B1: His-tagged Rab34 T66N (protein, UniProt Q64008 1-259)
chain: MNILAPVRRDRVLAELPQCLKKEAALHVRKDFHPRVTCACQEHRTGTVGFKISKVIVVGDLSVGKNCLINRFCKDTFDKNYKATIGVDFEMERFEVLGVPFSLQLWDTAGQERFKCIASTYYRGAQAIIIVFNLNDVASLEHTKQWLTDALKENDPSNVLLFLVGSKKDLSTPAQYSLMEKDALKVAQEIKAEYWAVSSLTGENVREFFFRVAALTFEANVLADVEKSGARHIADVVRINSDDKNLYLTASKKKATCCP
As to B1, the binding result in the assay with GST-RILP (full ORF) [1] and in the assay with GST-RILP (full ORF) [2] was “no binding (tested: 200 nM)” in each case.

B2: His-tagged Rab34 WT (natural protein, mouse, UniProt Q64008 1-259, looked up)
chain: B1 chain with N66T
notes: Rab34, mouse, from an I.M.A.G.E. clone, in pET28 His-thrombin; loaded with GTPγS or GDP before the pull-down; also called wild-type Rab34; purified Rab34; source: E. coli, purified (His-trap FF, imidazole gradient)
For the molecule B2, the binding result with GST-RILP (full ORF) [3] and in the assay with GST-RILP (full ORF) [4] was “no binding” throughout.
